Reference: PubChem BioAssay AID1053208 (Peter MacCallum Cancer Centre, 2014)
Aim: 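Synthetic lethal interactions between gene loss and doxorubicin in osteosarcoma cells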 (primary screen). System: mouse osteosarcoma cells, early-passage culture from an engineered mouse model of fibroblastic bone tumour. Knock-down reagent: siRNA pool against mouse genes, 40 nM. Duration: about 120 h (48 h before drug, then 72 h with drug). Treatment: doxorubicin 100 nM for 72 h, roughly 30-40% inhibitory dose. Measured: 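Luminescent ATP signal taken as viability with or without 100 nM doxorubicin for 72 h; mean of two wells set against non-targeting siRNA and turned into robust z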. Scale: viability z-score with doxorubicin: higher = more viable cells under doxorubicin; viability z-score without drug: higher = more viable cells with knock-down alone. Hit rule: 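a pool counts as active when its viability z-score with doxorubicin is -2 or below and its z-score without drug lies between -2 and 2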.
In all, the deposit lists about 17,000 reagents; this is an unselected part. In the full data, 788 (4.7%) got an active call. 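Calls rest on z-score classes alone; an extra cut-off of viability at most 70% of control was not applied to them.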 Not all columns of the deposit are shown.

| gene | combined z-score class | viability z-score with doxorubicin | viability z-score without drug | Call |
| --- | --- | --- | --- | --- |
| Srsf11 | no change with or without drug | -1.91 | -1.01 | inactive |
| Or52e5 | no change with or without drug | -0.22 | -0.17 | inactive |
| Nudt21 | no change with or without drug | 1.35 | -0.17 | inactive |
| Tmem98 | no change with or without drug | 0.79 | 0.51 | inactive |
| Rrp7a | no change with or without drug | 1.24 | 1.85 | inactive |
| Gbp5 | no change with or without drug | -1.01 | 0.17 | inactive |
| Or10ag57 | no change with or without drug | -0.79 | -0.51 | inactive |
| Psmd6 | low cell count with and without drug | -7.98 | -7.93 | inactive |
| Inhbb | no change with or without drug | 0.45 | 0.84 | inactive |
| Zfp869 | no change with or without drug | 0.34 | 1.01 | inactive |
| Sox21 | no change with or without drug | -0.22 | -1.18 | inactive |
| Gpr107 | no change with or without drug | -0.67 | 0.17 | inactive |
| Prkcsh | no change with or without drug | -0.22 | 0.17 | inactive |
| Prkn | no change with or without drug | 0.45 | -0.17 | inactive |
| Dynlt2a1 | no change with or without drug | -1.35 | 0 | inactive |
| Lmbrd1 | high cell count without drug only | 1.57 | 2.36 | inactive |
| Cdk7 | no change with or without drug | -0.22 | -1.69 | inactive |
| Aard | no change with or without drug | 0.45 | 0.17 | inactive |
| Rpap3 | low cell count with doxorubicin only | -4.27 | -0.17 | active |
| Fam3c | no change with or without drug | -1.35 | -0.51 | inactive |
| Trhr2 | high cell count with doxorubicin only | 2.25 | -0.17 | inactive |
| Zfp668 | no change with or without drug | -1.01 | -0.67 | inactive |
| Icosl | no change with or without drug | -1.91 | -0.17 | inactive |
| Cyp2f2 | no change with or without drug | 0 | -0.51 | inactive |
| A130050O07Rik | no change with or without drug | -0.11 | 0 | inactive |
| Anxa3 | low cell count with doxorubicin only | -2.25 | 0.17 | active |
| Esrp2 | no change with or without drug | 0 | -0.84 | inactive |
| Fam171a2 | no change with or without drug | 0.9 | 0.51 | inactive |
| Psen2 | no change with or without drug | 0 | 0.17 | inactive |
| Nlrp5 | no change with or without drug | -0.45 | 0.84 | inactive |
| Lrrtm3 | no change with or without drug | 1.46 | 0.17 | inactive |
| C530043A13Rik | no change with or without drug | 1.12 | 0.17 | inactive |
| Or8b44 | high cell count without drug only | 0.34 | 3.54 | inactive |
| Rpl29 | no change with or without drug | 0.45 | -0.51 | inactive |
| Fzd3 | no change with or without drug | -0.67 | 1.52 | inactive |
| Stpg2 | no change with or without drug | 1.35 | -0.34 | inactive |
| P2ry10 | no change with or without drug | 1.46 | 1.69 | inactive |
| Btbd7 | no change with or without drug | 0 | -0.84 | inactive |
| Rpap1 | no change with or without drug | 0.11 | 0.84 | inactive |
| Cstpp1 | no change with or without drug | 1.35 | 0.84 | inactive |
| Mphosph8 | high cell count without drug only | 0.9 | 3.54 | inactive |
| Gmeb2 | no change with or without drug | 1.12 | -0.51 | inactive |
| Hdac3 | no change with or without drug | -0.9 | -0.51 | inactive |
| Krt84 | no change with or without drug | -0.9 | 0.51 | inactive |
| Sprr1b | no change with or without drug | 0.56 | 0.51 | inactive |
| Morc4 | no change with or without drug | -0.22 | -0.17 | inactive |
| Syt9 | no change with or without drug | 0.22 | -1.18 | inactive |
| H2-M9 | no change with or without drug | -0.22 | -0.67 | inactive |
| Gdf7 | high cell count without drug only | -0.67 | 2.36 | inactive |
| Nell2 | no change with or without drug | 0.79 | -0.51 | inactive |
| Arhgap4 | no change with or without drug | -0.22 | 0.51 | inactive |
| Or5k1 | no change with or without drug | -0.79 | 0.51 | inactive |
| Tpr | no change with or without drug | -1.12 | -0.51 | inactive |
| Ankra2 | no change with or without drug | -0.22 | 0.51 | inactive |
| Krt8 | no change with or without drug | -0.22 | 0.34 | inactive |
| Fbln5 | low cell count with doxorubicin only | -2.02 | -0.34 | active |
| Cd209a | no change with or without drug | -1.35 | 0.51 | inactive |
| Cd83 | no change with or without drug | -0.34 | -1.18 | inactive |
| Or2j6 | no change with or without drug | 1.24 | 1.18 | inactive |
| Atp5mf | no change with or without drug | 0.45 | 0.17 | inactive |
| Gcat | no change with or without drug | -0.11 | 0.84 | inactive |
| Cyb561a3 | no change with or without drug | 0 | -0.17 | inactive |
| Nos1 | no change with or without drug | 1.12 | 0.17 | inactive |

7 successive entries from above, quoted:
| gene | combined z-score class | viability z-score with doxorubicin | viability z-score without drug | Call |
| --- | --- | --- | --- | --- |
| Tmem98 | no change with or without drug | 0.79 | 0.51 | inactive |
| Rrp7a | no change with or without drug | 1.24 | 1.85 | inactive |
| Gbp5 | no change with or without drug | -1.01 | 0.17 | inactive |
| Or10ag57 | no change with or without drug | -0.79 | -0.51 | inactive |
| Psmd6 | low cell count with and without drug | -7.98 | -7.93 | inactive |
| Inhbb | no change with or without drug | 0.45 | 0.84 | inactive |
| Zfp869 | no change with or without drug | 0.34 | 1.01 | inactive |
